This is an account of results in PMC2974636.

The chains behind the UniProt entries cited, without tags or fusion partners. Residues count along the entry.
UniProt Q9ESD7: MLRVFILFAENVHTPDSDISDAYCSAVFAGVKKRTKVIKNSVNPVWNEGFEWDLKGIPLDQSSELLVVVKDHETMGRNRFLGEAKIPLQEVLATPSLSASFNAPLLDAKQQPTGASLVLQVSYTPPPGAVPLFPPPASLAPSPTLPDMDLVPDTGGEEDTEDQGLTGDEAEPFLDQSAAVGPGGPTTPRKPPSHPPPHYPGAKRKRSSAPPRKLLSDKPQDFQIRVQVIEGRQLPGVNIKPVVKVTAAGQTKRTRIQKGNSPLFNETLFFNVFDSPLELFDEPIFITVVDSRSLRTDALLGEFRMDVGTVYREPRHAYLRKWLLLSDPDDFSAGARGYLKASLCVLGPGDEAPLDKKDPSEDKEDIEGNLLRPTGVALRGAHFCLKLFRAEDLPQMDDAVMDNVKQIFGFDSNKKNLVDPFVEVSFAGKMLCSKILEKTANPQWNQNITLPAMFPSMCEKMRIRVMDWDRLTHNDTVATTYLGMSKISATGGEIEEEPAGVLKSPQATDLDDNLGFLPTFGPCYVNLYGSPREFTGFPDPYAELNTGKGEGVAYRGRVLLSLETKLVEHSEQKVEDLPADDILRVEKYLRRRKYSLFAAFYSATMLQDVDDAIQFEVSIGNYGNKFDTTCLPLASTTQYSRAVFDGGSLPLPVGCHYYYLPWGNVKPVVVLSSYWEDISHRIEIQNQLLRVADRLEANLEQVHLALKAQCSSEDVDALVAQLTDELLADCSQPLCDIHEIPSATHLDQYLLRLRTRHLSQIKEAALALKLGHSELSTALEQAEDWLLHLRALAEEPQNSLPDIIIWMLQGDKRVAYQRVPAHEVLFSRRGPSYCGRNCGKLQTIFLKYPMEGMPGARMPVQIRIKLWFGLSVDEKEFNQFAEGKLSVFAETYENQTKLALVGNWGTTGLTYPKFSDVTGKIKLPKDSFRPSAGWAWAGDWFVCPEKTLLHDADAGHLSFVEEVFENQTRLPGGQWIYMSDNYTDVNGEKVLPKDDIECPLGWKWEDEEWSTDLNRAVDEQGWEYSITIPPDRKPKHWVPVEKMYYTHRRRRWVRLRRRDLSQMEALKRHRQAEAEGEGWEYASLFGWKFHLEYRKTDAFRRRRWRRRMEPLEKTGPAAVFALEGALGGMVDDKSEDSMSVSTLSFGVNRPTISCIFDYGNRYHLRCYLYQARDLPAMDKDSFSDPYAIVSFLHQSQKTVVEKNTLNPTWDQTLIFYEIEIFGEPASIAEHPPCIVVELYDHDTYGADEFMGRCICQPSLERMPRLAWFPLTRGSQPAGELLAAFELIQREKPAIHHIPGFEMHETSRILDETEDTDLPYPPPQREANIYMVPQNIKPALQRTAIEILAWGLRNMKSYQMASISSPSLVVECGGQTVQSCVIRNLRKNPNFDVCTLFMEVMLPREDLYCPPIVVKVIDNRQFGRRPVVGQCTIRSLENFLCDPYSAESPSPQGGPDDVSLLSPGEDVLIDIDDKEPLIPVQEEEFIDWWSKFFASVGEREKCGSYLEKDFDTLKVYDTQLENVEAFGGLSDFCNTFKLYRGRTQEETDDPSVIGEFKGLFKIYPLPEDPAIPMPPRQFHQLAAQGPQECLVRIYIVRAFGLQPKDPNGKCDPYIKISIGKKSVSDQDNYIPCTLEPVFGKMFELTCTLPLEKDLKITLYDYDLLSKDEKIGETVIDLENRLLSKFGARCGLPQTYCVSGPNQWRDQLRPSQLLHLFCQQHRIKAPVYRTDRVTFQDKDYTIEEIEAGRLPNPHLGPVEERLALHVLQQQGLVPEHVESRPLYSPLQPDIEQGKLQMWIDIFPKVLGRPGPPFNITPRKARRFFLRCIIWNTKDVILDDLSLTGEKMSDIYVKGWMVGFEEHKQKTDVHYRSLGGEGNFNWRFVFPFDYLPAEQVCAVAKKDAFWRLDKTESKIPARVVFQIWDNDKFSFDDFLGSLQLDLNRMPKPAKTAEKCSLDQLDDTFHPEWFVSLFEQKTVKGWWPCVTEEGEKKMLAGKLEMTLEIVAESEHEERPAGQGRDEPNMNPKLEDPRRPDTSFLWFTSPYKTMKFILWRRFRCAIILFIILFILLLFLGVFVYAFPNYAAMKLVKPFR
UniProt O75923: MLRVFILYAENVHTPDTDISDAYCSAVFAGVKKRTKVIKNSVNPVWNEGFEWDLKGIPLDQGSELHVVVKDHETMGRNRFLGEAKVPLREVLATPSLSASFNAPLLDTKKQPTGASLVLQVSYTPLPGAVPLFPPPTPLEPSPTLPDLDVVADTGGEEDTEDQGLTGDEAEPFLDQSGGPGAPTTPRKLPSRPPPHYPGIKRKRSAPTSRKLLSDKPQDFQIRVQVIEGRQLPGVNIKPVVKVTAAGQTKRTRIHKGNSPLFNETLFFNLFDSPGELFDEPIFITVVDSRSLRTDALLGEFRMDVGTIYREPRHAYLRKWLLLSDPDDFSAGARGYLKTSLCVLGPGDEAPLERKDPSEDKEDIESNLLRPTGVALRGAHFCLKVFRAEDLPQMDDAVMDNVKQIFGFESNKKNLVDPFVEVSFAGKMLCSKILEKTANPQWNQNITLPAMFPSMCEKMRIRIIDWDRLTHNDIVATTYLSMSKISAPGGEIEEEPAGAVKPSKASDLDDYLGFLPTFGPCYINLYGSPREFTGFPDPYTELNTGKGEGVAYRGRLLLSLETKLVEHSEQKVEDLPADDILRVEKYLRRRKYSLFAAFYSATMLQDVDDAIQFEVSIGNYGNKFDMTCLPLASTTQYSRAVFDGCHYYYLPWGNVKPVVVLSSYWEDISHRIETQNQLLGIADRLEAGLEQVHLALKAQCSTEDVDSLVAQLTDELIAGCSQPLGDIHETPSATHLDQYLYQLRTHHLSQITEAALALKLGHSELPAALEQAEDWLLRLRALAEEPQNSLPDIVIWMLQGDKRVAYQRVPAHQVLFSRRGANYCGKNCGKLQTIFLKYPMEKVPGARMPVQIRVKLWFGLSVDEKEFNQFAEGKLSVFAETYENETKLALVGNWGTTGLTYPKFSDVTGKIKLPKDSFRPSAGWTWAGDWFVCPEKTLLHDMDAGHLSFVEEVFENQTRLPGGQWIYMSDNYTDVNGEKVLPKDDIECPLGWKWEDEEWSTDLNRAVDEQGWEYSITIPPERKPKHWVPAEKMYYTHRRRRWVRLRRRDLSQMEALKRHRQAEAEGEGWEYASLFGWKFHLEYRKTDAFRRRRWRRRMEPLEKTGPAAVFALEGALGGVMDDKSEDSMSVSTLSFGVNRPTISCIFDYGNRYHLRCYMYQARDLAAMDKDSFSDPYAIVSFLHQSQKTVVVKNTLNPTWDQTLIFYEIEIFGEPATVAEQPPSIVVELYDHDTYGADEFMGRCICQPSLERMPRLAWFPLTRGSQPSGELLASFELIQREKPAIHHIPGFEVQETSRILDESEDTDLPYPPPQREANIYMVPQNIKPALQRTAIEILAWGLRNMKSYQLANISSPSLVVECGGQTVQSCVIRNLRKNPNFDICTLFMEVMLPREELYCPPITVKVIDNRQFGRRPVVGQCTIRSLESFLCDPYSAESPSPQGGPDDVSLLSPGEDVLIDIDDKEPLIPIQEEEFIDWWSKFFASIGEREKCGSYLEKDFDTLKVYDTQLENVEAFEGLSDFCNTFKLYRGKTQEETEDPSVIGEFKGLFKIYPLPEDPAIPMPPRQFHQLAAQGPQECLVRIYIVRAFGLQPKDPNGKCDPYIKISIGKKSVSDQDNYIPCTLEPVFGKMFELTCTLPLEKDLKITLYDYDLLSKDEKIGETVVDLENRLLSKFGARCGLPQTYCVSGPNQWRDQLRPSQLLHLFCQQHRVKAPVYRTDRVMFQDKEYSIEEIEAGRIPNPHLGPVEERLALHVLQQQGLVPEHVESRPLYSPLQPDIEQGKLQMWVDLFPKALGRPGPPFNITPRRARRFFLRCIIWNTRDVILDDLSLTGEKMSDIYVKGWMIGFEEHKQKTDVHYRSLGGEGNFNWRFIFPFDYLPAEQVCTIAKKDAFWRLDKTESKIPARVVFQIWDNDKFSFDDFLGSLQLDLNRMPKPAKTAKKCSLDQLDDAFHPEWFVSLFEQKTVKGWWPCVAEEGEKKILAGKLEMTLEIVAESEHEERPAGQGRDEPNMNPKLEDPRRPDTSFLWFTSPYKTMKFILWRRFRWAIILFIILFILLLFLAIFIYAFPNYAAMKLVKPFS
UniProt Q14203: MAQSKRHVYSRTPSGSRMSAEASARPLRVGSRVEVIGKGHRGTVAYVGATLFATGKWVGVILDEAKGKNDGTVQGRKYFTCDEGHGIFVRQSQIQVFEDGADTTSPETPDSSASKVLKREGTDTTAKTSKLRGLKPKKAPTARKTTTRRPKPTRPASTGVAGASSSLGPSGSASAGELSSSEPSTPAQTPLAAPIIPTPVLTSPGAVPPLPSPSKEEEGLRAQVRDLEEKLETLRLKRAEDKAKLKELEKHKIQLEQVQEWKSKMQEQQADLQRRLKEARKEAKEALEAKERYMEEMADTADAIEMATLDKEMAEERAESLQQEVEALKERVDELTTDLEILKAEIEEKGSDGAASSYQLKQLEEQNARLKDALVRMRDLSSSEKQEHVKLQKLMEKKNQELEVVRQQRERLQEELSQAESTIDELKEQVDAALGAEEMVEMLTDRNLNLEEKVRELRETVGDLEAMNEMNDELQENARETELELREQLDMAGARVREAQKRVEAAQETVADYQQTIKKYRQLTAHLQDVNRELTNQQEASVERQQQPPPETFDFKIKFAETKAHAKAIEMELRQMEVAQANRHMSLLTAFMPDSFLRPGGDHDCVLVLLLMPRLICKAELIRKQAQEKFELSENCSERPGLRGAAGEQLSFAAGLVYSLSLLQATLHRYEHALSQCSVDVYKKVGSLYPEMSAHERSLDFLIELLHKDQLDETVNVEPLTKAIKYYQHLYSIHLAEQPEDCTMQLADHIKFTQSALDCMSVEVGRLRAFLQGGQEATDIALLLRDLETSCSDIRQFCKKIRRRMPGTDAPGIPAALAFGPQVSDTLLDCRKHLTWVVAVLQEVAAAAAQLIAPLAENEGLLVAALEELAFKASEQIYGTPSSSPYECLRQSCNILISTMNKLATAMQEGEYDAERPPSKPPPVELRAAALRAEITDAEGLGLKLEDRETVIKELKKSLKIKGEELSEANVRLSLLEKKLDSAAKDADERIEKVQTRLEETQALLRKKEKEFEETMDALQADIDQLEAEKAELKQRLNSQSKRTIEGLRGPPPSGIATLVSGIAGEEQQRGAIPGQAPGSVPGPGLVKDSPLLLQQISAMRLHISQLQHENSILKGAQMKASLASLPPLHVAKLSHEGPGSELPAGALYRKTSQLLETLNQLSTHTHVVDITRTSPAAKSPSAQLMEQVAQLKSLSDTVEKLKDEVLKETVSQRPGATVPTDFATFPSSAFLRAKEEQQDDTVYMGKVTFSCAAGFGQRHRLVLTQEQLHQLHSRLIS
UniProt P11021, residues 19-654: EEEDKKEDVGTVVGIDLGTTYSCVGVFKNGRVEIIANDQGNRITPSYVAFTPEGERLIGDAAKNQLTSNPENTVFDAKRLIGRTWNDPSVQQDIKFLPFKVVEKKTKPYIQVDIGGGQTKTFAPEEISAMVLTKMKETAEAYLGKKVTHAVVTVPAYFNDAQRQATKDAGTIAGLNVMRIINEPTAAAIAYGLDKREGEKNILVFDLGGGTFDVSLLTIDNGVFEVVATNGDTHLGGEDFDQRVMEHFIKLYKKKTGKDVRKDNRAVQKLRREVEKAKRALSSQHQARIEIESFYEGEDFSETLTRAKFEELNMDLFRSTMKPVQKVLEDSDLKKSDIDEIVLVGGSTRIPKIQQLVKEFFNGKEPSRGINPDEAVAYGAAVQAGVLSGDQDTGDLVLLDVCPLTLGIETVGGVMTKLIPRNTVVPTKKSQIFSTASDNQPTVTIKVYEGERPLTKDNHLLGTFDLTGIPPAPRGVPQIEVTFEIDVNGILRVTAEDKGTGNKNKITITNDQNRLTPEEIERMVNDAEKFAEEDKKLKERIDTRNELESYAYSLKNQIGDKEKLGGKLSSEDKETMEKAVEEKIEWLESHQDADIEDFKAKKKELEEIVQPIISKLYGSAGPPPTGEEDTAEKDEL
UniProt P07310: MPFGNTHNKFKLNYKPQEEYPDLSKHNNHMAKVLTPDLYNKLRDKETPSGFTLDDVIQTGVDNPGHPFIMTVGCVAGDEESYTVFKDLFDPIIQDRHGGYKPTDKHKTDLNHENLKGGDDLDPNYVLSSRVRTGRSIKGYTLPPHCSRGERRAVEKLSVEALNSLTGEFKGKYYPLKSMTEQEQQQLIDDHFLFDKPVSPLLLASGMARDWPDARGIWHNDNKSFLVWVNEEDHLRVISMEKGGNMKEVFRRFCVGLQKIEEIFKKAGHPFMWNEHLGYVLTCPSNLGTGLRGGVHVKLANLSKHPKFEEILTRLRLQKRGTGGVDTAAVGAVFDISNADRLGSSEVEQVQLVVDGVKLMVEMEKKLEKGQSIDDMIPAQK

Read-outs that look alike come from different tables or passages of the source. Results are given in words; binding and its absence hold for the method and conditions named. Binding seen in cells or lysates may run through a third protein. Here binding means that the protein was enriched with, or labelled near, the bait; the list need not be complete.

Assay [1] deals with Dysferlin (endogenous, mouse IM2 myoblasts and myotubes) (mouse (endogenous in IM2)) (UniProt Q9ESD7). Nature of the assay: affinity purification with mass spectrometry; HCAb H7 IP of endogenous dysferlin from IM2 myoblast and myotube (5 days post-differentiation) lysates in Triton buffer; SDS-PAGE, in-gel trypsin digestion, nano LC ESI MS/MS.
The target in assay [2] is Dysferlin (endogenous, human skeletal muscle tissue) (human (endogenous in skeletal muscle)) (UniProt O75923). Briefly: affinity purification with mass spectrometry; HCAb H7 IP of endogenous dysferlin from human skeletal muscle tissue homogenised in CHAPS buffer; SDS-PAGE, in-gel trypsin digestion, nano LC ESI MS/MS.
The target of assay [3] is Dysferlin (endogenous; source of the IP not stated: IM2 myoblasts, IM2 myotubes or human skeletal muscle) (not stated (endogenous in mouse IM2 cells or human skeletal muscle)) (UniProt Q9ESD7). Nature of the assay: affinity purification with mass spectrometry; HCAb H7 IP of endogenous dysferlin, mass spectrometry; the data set (IM2 myoblasts, IM2 myotubes or human skeletal muscle) is not named in the text (Table S1).

In assay [4] the target is Dysferlin (endogenous, mouse IM2 myoblasts and myotubes) (mouse (endogenous in IM2)) (UniProt Q9ESD7). Briefly: affinity purification with mass spectrometry; HCAb H7 IP of endogenous dysferlin from IM2 myoblast and myotube (5 days post-differentiation) lysates in Triton buffer; SDS-PAGE, in-gel trypsin digestion, nano LC ESI MS/MS. This is another data set of the same source.

On to “ACTN2 (endogenous, mouse IM2 myotubes) (from UniProt Q9JI91 1-894)”, for which, in assay [1], the binding entry is reported as “binds”.
Same read-out and setting: the value for “ANXA2 (endogenous, mouse IM2 cells) (from UniProt P07356 1-339)” was “binds”.
In the case of “ATP synthase (ATP5b) (endogenous, human skeletal muscle tissue) (from UniProt P06576 48-529)”, the binding result in assay [2] was “binds”.
Regarding “ATP synthase (ATP5b) (endogenous, mouse IM2 cells) (from UniProt P56480 47-529)”, in assay [1], the binding entry is on record as “binds”.
On the same count and under the same terms, the value for “CAPZB (endogenous, mouse IM2 cells) (from UniProt P47757 1-277)” was “binds”.
Regarding “DCTN1 (endogenous, human skeletal muscle tissue) (from UniProt Q14203 1-1278)”, the binding result in assay [2] is recorded as “binds”.
As for “DCTN1 (endogenous, mouse IM2 myoblasts) (from UniProt O08788 1-1281)”, the binding entry in assay [1] is on record as “binds”.
Still for that read-out and setting: next, “EIF2S1 (endogenous, mouse IM2 myoblasts) (from UniProt Q6ZWX6 1-315)”: “binds”.
For the molecule “EIF3B (endogenous, human skeletal muscle tissue) (from UniProt P55884 1-814)”, the binding entry in assay [2] is reported as “binds”.
As to “EIF3B (endogenous, mouse IM2 cells) (from UniProt Q8JZQ9 1-803)”, in assay [1], the binding result is reported as “binds”.
For the molecule “HSP90B1 (endogenous, human skeletal muscle tissue) (from UniProt P14625 22-803)”, the binding result in assay [2] is recorded as “binds”.
Still for that read-out and setting: next, “HSPA5 (endogenous, human skeletal muscle tissue) (from UniProt P11021 19-654)”: “binds”.
With “LDB3 (endogenous, mouse IM2 myotubes) (from UniProt Q9JKS4 1-723)”, in assay [1], the binding entry is “binds”.
Turning to “LMNA (endogenous, human skeletal muscle tissue) (from UniProt P02545 1-646)”, the binding entry in assay [2] is listed as “binds”.
“Mannose-6 phosphate receptor (CIMPR, or IGF2R) (from UniProt Q07113 36-2483)”: the binding entry in assay [3] is “binds”.
For “Myoferlin (endogenous, human skeletal muscle tissue) (from UniProt Q9NZM1 1-2061)”, the binding entry in assay [2] is given as “binds”.
For “Myoferlin (endogenous, mouse IM2 cells) (from UniProt Q69ZN7 1-2048)”, in assay [1], the binding entry is given as “binds”.
Take “STAT1 (endogenous, human skeletal muscle tissue) (from UniProt P42224 1-750)”: the binding entry in assay [2] is listed as “binds”.
For “UTRN (endogenous, mouse IM2 myoblasts) (from UniProt E9Q6R7 1-3430)”, the binding entry in assay [1] is “binds”.
As for VCP (from UniProt Q01853 1-806), in assay [3], the binding result is listed as “binds”.
Consider “Vinculin (endogenous, mouse IM2 cells) (from UniProt Q64727 1-1066)”, for which the binding result in assay [1] was “binds”.
Turning to “creatine kinase B (from UniProt Q04447 1-381)”, in assay [3], the binding result is reported as “binds”.
Same read-out and setting: next, “creatine kinase M (from UniProt P07310 1-381)”: “binds”.

B1: clathrin-α (CLTA) (protein, UniProt O08585 1-235)
chain: MAELDPFGAPAGAPGGPALGNGVAGAGEEDPAAAFLAQQESEIAGIENDEAFAILDGGAPGRATRRAAGGPDAVDGVMNGEYYQESNGPTDSYAAISEVDRLQSEPESIRKWREEQTERLEALDANSRKQEAEWKEKAIKELEEWYARQDEQLQKTKANNRVADEAFYKQPFADLIGYVAAEEAFVNDIDESSPGTEWERVARLCDFNPKSSKQAKDVSRMRSVLISLKQAPLVH
In the case of B1, the binding entry in assay [3] is “binds”.

B2: TRIM72 (endogenous, mouse IM2 myotubes) (protein, UniProt Q1XH17 1-477)
chain: MSAAPGLLRQELSCPLCLQLFDAPVTAECGHSFCRACLIRVAGEPAADGTVACPCCQAPTRPQALSTNLQLSRLVEGLAQVPQGHCEEHLDPLSIYCEQDRTLVCGVCASLGSHRGHRLLPAAEAQARLKTQLPQQKMQLQEACMRKEKTVAVLEHQLVEVEETVRQFRGAVGEQLGKMRMFLAALESSLDREAERVRGDAGVALRRELSSLNSYLEQLRQMEKVLEEVADKPQTEFLMKFCLVTSRLQKILSESPPPARLDIQLPVISDDFKFQVWKKMFRALMPALEELTFDPSSAHPSLVVSSSGRRVECSDQKAPPAGEDTRQFDKAVAVVAQQLLSQGEHYWEVEVGDKPRWALGVMAADASRRGRLHAVPSQGLWLLGLRDGKILEAHVEAKEPRALRTPERPPARIGLYLSFADGVLAFYDASNPDVLTPIFSFHERLPGPVYPIFDVCWHDKGKNAQPLLLVGPEQEQA
As for B2, the binding result in assay [4] is recorded as “binds”.
